Values from PubChem BioAssay AID652259 (Drosophila RNAi Screening Center, 2013).
Test: 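Genome-wide hunt for genes that control Wingless pathway activity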 (primary screen). System: Drosophila clone 8 imaginal disc epithelial cells. Reagent: long dsRNA against Drosophila genes. Conditions: pathway stimulated by co-transfected Wingless expression plasmid. Read-out: 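Firefly luciferase from a tcf-site Wingless reporter, measured alongside co-transfected Renilla luciferase that tracks transfection; pathway stimulated by a Wingless plasmid; the firefly-to-Renilla ratio is not deposited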. Direction: firefly reporter light: higher = more Wg reporter light, before normalisation; Renilla control light: higher = more transfected or surviving cells. Rule for the call: 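Strong candidates differ from their plate mean by at least two out of four per-plate statistical tests; weak candidates meet just one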. Meaning of the calls: active = candidate regulator (raises or lowers reporter); inactive = not a candidate.
The screen tested about 22,000 reagents; below is an unselected part of those with a known target gene and a result. Over the whole deposit, 233 (1.1%) got an active call. 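Light values are raw, unnormalised plate reads; the ratio scores behind the reporter calls were not deposited.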 A number with no mark means an inactive call. The numbers tell different reagents against one gene apart. Names joined by + are all predicted targets of the reagent. The record does not give: the amount of reagent, the time to read-out, the dose of the treatment.

Target gene | dsRNA no. | firefly reporter light, replicate 1 | firefly reporter light, replicate 2 | Renilla control light, replicate 1 | Renilla control light, replicate 2
CG17666 (GeneID 39452) | 1 | 4811 | – | 2128 | –
PIG-O (GeneID 37118) | 1 | 20455 | – | 5879 | –
CG13625 (GeneID 42931) | 1 | 3425 | 4637 | 1224 | 1521
CG10481 (GeneID 35273) | 1 | 3053 | 6106 | 439 | 2923
CG5515 (GeneID 42875) | 1 | 2336 | 3771 | 1207 | 1267
Etl1 (GeneID 34311) | 1 | 7556 | – | 1958 | –
Chpf (GeneID 32259) | 1 | 20210 | – | 9829 | –
Chpf (GeneID 32259) | 2 | 1991 | 7788 | 949 | 2259
Cubn (GeneID 326235) | 1 | 2534 | 5620 | 652 | 1788
CG30259 (GeneID 37606) | 1 | 2779 | 10876 | 741 | 3143
CG30259 (GeneID 37606) | 2 | 3847 | 6579 | 860 | 2828
Oat (GeneID 40145) | 1 | 4522 | – | 2198 | –
lft (GeneID 34405) | 1 | 3297 | 4058 | 856 | 2769
CG31637 (GeneID 33914) | 1 | 16330 | – | 8477 | –
CG31637 (GeneID 33914) | 2 | 3040 | 8374 | 745 | 969
Su(var)205 (GeneID 34119) | 1 | 13512 | – | 4833 | –

Continued (3 carried over from the part before).
Target gene | dsRNA no. | firefly reporter light, replicate 1 | firefly reporter light, replicate 2 | Renilla control light, replicate 1 | Renilla control light, replicate 2
CG31637 (GeneID 33914) | 1 | 16330 | – | 8477 | –
CG31637 (GeneID 33914) | 2 | 3040 | 8374 | 745 | 969
Su(var)205 (GeneID 34119) | 1 | 13512 | – | 4833 | –
key (GeneID 37967) | 1 | 19296 | – | 5480 | –
Rgk3 (GeneID 5740446) | 1 | 3426 | 11909 | 824 | 4977
Rgk3 (GeneID 5740446) | 2 | 3466 | 9824 | 1270 | 4235
Rgk3 (GeneID 5740446) | 3 | 2824 | 5819 | 791 | 1876
Rgk3 (GeneID 5740446) | 4 | 2924 | 9259 | 699 | 2960
bin3 (GeneID 35552) | 1 | 3767 | 7875 | 992 | 2224
CG33695 + cana | 1 | 20672 | – | 8384 | –
CG33695 + cana | 2 | 2176 | 6786 | 828 | 2092
lace (GeneID 34910) | 1 | 8896 | – | 2851 | –
CG43074 (GeneID 12798579) | 1 | 2237 | – | 1388 | –
CG32750 (GeneID 326238) | 1 | 14375 | – | 8341 | –
Got1 (GeneID 36782) | 1 | 11092 | – | 3511 | –
Sf3b1 (GeneID 33235) | 1 | 3255 | 8070 | 729 | 2023
